In PMC11904943 one finds binding data, which are given here for one substance.

Protein sequences, listed by entry. Tags and fused reporters are not part of them.
UniProt Q5VTR2: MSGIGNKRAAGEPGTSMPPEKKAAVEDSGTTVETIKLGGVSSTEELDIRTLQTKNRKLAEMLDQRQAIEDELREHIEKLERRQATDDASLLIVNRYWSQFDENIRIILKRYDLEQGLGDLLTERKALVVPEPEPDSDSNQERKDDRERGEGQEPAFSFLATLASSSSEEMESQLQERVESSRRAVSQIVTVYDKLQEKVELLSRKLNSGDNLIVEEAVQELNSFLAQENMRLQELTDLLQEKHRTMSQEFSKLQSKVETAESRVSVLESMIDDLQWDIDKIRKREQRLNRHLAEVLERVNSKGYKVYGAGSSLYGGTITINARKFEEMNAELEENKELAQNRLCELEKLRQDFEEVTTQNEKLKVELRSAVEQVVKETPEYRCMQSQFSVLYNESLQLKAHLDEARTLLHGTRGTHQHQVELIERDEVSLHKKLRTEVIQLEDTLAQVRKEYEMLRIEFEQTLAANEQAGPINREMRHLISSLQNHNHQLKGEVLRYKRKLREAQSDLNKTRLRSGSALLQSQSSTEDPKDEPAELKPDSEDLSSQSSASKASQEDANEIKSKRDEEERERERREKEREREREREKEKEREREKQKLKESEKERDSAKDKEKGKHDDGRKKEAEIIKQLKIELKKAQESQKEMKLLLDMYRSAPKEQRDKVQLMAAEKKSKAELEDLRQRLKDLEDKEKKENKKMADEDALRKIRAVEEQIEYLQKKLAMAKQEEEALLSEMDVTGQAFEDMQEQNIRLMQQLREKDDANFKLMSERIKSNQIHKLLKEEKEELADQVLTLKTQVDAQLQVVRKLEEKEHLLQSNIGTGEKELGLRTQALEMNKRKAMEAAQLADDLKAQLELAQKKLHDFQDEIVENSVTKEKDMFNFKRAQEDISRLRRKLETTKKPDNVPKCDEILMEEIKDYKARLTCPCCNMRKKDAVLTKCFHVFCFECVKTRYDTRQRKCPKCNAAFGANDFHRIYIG

These are yes or no findings as the source states them, for the method shown. In cells and extracts the contact can be indirect. These calls come from enrichment with a bait or labelling near it, and not all partners need be listed. Tags and fused reporters may be left off the sequences shown.

This assay addresses T1, Flag-eGFP-WAC (WW domain-containing adaptor with coiled-coil) (human) (UniProt Q9BTA9).
T1 sequence: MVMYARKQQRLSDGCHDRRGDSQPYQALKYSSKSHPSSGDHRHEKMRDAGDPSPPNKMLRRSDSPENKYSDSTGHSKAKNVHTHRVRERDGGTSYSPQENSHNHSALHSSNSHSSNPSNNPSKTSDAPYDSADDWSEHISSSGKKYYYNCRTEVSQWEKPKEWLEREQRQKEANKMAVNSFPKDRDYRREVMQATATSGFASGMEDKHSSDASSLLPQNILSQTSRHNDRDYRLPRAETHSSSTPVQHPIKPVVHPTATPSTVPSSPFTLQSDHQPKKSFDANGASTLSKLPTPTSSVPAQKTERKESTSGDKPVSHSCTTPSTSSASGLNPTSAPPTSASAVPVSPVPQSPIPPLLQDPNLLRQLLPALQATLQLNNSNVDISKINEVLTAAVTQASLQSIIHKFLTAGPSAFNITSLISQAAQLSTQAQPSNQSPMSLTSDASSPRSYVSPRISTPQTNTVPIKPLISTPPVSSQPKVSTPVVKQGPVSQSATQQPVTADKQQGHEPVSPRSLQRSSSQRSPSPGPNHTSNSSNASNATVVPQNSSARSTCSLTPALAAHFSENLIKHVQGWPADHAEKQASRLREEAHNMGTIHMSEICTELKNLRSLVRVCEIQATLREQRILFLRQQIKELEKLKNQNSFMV
The experiment in a line: affinity purification with mass spectrometry; HEK293T cells transfected with Flag-eGFP-WAC or Flag-eGFP; lysates immunoprecipitated with anti-DYKDDDDK G1 affinity resin; LC-MS/MS.

For RNF20 (from UniProt Q5VTR2 1-975), the binding entry was “binds”.
